Experimental data published in US12392781B2, “Deuterated indole heptamethine cyanine dyes” (University of Notre Dame du Lac, priority 2021, dated 2025).

Experiment: NIR fluorescence imaging of mouse phantoms with heart port filled with FBS and dye stock aliquot
Settings: fresh stock solutions, final dye 2 μM in FBS

## CC1(C)C(/C=C/C=C/C=C/C=C2/N(CCCCS(=O)(=O)[O-])c3ccc4ccccc4c3C2(C)C)=[N+](CCCCS(=O)(=O)[O-])c2ccc3ccccc3c21.[Na+] [ICG, Indocyanine Green]
  Image intensity of heart region compared with ICG-d5: no difference in image intensities
